Test results from the supplement of paper PMC10849652.
The other results are listed elsewhere or left out.

Protein sequences, listed by entry. Tags and fused reporters are not part of them. Lines headed by an entry give the natural chain unless they say otherwise; changes in a name come on top.
UniProt O43929: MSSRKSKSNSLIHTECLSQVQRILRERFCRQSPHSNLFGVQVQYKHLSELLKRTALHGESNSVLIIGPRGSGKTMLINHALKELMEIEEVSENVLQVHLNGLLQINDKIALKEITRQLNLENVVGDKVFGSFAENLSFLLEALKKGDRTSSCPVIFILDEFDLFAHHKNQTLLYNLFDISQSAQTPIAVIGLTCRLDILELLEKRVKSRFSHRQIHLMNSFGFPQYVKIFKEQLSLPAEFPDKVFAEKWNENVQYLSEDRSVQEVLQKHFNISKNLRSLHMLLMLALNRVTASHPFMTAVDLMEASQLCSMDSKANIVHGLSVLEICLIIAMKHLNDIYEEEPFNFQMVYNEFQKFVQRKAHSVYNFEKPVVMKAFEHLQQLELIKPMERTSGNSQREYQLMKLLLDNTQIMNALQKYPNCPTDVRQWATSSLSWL
UniProt Q9BRJ7: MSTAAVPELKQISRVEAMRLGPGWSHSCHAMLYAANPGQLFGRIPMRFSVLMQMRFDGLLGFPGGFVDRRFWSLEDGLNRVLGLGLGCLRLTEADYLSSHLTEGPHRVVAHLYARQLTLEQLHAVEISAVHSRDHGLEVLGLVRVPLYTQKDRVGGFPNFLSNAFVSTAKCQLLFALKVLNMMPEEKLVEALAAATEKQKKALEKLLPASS
UniProt A8MXV4: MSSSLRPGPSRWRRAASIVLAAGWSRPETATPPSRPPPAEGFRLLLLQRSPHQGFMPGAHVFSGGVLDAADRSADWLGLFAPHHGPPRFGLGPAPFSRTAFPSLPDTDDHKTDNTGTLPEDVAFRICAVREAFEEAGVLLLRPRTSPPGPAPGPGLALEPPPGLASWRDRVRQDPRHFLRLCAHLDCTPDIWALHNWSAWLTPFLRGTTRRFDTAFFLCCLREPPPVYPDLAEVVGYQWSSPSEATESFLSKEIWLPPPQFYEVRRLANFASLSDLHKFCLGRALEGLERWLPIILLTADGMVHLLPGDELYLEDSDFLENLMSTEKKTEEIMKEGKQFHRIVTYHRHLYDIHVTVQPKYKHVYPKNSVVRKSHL
UniProt Q8NFH4: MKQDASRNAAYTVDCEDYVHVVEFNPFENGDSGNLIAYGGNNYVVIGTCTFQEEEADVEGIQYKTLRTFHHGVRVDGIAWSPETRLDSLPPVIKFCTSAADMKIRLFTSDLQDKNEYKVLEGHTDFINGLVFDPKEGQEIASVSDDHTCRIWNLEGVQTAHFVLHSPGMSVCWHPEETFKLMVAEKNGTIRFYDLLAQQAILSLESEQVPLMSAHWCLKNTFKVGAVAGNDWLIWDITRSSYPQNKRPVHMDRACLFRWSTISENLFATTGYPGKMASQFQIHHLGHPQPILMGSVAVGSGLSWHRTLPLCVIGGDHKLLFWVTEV
UniProt Q8NFH3: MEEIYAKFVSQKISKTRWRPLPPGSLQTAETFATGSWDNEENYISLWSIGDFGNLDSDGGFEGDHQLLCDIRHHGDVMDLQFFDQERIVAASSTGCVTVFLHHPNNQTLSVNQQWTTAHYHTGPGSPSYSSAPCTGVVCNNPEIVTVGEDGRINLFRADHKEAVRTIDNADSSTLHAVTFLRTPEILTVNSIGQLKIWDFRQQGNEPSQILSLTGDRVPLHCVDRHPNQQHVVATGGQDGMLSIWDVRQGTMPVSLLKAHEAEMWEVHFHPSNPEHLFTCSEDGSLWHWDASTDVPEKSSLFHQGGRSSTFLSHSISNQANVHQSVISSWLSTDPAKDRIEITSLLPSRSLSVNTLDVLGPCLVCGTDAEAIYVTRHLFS
UniProt Q6GQQ9: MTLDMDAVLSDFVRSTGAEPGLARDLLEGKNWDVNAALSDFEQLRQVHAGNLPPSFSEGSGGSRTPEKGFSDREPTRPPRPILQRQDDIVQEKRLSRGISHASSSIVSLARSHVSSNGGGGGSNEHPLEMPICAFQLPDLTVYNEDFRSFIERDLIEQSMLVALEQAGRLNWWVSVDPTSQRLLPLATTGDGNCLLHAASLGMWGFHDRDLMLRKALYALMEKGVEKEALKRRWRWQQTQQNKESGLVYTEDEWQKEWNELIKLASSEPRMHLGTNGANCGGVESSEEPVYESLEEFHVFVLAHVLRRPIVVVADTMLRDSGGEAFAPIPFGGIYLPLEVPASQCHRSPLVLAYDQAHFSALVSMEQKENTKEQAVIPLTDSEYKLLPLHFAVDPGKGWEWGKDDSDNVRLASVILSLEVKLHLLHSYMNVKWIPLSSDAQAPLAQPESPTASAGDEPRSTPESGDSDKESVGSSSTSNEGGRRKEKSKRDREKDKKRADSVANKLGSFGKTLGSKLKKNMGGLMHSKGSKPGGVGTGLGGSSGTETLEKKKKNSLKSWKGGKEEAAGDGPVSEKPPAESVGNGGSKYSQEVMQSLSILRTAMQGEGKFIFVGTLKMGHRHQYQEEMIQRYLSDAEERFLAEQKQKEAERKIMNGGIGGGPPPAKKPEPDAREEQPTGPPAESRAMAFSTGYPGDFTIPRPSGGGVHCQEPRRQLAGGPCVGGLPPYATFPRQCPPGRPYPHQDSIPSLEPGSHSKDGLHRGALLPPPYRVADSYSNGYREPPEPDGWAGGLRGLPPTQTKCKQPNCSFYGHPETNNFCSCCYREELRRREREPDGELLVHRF
UniProt Q8TEA1: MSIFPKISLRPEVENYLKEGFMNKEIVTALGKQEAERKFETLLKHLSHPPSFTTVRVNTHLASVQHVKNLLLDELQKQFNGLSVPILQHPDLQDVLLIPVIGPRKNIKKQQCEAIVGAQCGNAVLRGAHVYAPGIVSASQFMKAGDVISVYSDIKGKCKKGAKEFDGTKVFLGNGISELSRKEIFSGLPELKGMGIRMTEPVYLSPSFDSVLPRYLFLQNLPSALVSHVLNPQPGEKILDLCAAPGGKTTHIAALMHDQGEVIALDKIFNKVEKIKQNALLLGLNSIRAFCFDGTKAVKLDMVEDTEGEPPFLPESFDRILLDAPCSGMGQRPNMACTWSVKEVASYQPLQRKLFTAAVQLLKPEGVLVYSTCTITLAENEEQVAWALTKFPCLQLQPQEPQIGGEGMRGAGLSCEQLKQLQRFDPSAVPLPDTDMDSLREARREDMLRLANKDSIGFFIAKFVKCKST
UniProt P49790, whole entry, looked up: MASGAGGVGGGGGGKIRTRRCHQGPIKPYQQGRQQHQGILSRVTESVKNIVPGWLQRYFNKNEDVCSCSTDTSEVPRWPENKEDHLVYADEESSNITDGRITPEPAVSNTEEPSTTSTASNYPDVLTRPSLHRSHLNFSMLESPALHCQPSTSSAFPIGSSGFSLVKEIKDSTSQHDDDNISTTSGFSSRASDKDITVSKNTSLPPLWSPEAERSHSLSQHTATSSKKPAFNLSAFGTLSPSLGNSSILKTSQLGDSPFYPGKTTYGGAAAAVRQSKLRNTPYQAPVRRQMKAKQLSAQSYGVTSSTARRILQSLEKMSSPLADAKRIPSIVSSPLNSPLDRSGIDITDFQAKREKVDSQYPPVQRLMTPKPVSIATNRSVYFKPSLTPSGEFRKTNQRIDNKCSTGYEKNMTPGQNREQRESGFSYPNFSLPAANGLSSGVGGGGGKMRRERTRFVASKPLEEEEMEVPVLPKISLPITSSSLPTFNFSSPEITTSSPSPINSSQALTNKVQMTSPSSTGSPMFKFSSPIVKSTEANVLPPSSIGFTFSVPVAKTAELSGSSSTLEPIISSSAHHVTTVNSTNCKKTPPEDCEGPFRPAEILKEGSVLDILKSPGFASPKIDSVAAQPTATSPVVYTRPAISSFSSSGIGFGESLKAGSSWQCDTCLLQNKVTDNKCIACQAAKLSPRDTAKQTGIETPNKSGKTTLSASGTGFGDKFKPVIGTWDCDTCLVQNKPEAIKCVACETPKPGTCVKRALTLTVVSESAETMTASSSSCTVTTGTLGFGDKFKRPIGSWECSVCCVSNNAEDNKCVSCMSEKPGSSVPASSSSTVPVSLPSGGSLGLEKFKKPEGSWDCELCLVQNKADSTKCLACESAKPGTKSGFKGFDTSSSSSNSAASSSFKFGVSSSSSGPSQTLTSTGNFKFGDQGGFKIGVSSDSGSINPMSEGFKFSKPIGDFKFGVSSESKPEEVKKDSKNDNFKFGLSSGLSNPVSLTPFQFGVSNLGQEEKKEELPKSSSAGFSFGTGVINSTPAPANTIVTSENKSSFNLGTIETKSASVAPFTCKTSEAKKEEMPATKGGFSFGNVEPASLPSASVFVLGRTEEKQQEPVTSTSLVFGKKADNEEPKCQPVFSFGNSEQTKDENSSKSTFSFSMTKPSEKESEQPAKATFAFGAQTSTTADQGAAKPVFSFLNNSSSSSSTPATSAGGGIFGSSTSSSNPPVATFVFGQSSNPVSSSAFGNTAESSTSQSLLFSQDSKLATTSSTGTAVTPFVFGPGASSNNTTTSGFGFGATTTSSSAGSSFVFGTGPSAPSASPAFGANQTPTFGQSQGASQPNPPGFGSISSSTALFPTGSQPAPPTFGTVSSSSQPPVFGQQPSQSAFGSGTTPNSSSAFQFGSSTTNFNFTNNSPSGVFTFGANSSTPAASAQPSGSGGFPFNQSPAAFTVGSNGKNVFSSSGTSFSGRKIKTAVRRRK
UniProt Q96FW1, whole entry, looked up: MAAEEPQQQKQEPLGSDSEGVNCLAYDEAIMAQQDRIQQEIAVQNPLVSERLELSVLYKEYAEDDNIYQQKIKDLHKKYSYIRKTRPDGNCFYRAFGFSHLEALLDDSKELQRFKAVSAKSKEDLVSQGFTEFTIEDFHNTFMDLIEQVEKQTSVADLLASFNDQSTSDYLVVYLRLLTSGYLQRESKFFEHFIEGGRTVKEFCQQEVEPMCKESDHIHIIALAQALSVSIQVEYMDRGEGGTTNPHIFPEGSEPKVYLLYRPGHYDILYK
UniProt Q99567: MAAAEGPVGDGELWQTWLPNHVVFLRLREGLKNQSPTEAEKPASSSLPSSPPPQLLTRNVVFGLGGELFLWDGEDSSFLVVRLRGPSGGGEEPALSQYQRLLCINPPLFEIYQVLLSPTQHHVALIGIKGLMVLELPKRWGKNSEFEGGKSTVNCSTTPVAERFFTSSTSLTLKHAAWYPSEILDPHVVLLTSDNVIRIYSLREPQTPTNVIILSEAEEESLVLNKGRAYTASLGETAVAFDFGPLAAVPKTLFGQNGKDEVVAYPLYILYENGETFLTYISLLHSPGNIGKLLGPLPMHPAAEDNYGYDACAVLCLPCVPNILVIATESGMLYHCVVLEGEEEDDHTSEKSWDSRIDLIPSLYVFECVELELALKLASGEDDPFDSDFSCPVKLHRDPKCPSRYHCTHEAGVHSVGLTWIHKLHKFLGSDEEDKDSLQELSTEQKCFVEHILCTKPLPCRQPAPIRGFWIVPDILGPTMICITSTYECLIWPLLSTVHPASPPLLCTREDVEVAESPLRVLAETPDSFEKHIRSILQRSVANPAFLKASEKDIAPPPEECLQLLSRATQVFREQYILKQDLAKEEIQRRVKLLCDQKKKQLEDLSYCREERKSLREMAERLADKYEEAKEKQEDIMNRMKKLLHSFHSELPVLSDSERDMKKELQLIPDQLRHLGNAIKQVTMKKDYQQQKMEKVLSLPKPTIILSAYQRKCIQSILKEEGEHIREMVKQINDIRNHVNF
UniProt Q92882: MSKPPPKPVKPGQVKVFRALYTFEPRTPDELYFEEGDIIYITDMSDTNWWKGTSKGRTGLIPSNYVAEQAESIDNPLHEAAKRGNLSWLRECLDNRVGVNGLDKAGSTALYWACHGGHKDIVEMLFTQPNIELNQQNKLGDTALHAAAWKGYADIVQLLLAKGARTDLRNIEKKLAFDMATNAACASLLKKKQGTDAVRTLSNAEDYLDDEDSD
UniProt Q9NZJ9: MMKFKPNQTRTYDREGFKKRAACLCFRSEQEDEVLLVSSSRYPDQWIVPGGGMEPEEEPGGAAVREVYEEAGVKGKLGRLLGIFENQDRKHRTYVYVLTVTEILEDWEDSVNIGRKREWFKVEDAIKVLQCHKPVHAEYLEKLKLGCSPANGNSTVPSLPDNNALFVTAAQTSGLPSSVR
UniProt Q9NTK5, whole entry, looked up: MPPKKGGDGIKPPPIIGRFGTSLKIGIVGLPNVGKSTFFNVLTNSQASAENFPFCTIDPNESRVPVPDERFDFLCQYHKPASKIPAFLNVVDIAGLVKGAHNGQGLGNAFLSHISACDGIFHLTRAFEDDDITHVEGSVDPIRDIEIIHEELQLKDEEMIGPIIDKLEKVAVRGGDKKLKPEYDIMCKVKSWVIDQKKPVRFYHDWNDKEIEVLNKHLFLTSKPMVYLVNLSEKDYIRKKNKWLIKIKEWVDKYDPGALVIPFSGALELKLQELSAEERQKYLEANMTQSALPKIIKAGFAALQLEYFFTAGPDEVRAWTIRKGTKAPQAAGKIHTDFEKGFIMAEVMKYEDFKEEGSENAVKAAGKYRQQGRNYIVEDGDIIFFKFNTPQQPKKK
UniProt Q9Y5Y2: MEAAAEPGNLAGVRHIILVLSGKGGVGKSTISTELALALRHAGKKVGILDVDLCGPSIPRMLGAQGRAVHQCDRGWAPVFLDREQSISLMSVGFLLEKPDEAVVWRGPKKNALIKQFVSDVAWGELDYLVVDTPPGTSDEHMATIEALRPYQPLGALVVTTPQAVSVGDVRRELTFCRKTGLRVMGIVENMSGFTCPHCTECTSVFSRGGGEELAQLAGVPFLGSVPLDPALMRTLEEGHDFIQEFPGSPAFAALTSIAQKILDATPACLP

compound: COC1=CC=C(C=C1)CN2C=CC3=C2C=C(C=C3)C(=O)NO; assay: log2 fold change, soluble protein after heating vs DMSO (PISA); higher = thermal stabilisation; K562 cells, 10 uM, 30 min; active = over 0.2 and 3.5 SD of the protein, either way, in both replicates (recomputed)
Summary of the method: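 Soluble protein was defined as the supernatant after 21,000xg for 90 min. It came from K562 cells at 2×10^6 cells/mL given 10 μM compound for 30 min, heated in aliquots for 3 min across 48°C-58°C, pooled, and extracted in PBS with 0.5% NP-40 at 4°C, and was quantified by TMTpro 16plex LC-MS/MS with equalised channel sums. Thermal stability against control samples, from duplicates, is reported as log2 fold change.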

log2 fold change, inactive:
NT5C2 (UniProt P49902) 0.059
ORC4 (UniProt O43929) 0.039
NUDT16L1 (UniProt Q9BRJ7) -0.03
OS9 (UniProt Q13438) -0.039
NUDT19 (UniProt A8MXV4) 0.027
PABPC1 (UniProt P11940) -0.025
NT5DC3 (UniProt Q86UY8) 0.01
NUP37 (UniProt Q8NFH4) 0.009
OPTN (UniProt Q96CV9) -0.003
NUP43 (UniProt Q8NFH3) 0.06
OTUD7B (UniProt Q6GQQ9) 0.169
NSUN6 (UniProt Q8TEA1) -0.122
NUP153 (UniProt P49790) 0.01
P4HA1 (UniProt P13674) -0.044
OTUB1 (UniProt Q96FW1) 0.044
P3H1 (UniProt Q32P28) -0.067
NUP88 (UniProt Q99567) 0.049
OSTF1 (UniProt Q92882) 0.116
NUDT4 (UniProt Q9NZJ9) -0.076
NUSAP1 (UniProt Q9BXS6) -0.2
OIP5 (UniProt O43482) 0.109
OLA1 (UniProt Q9NTK5) 0.022
NUB1 (UniProt Q9Y5A7) -0.042
NUBP2 (UniProt Q9Y5Y2) -0.002

Not a retest: entries from further up.
log2 fold change, inactive:
NUP88 (UniProt Q99567) 0.049
OSTF1 (UniProt Q92882) 0.116
